Source: the supplement of paper PMC8728848
The list shows a part of the results.

Experiments:
Test in all cases: glycan array binding signal (z-score within array); higher = stronger binding
Conditions in all cases: glycan notation: IUPAC condensed, linker removed
[1] = target: Fuc(a1-2)Gal
Outline: (§1)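 The Consortium for Functional Glycomics database supplied 3228 glycan arrays, of which those lacking an available protein sequence were dropped. The binding signal, a within-array Z-score, was averaged across arrays of the same protein sequence and across linkers. Negative scores can be read as non-binding.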

[2] = target: Fuc(a1-2)Gal(b1-3)GalNAc
Outline: as §1

[3] = target: Fuc(a1-2)Gal(b1-3)GalNAc(a1-3)[Fuc(a1-2)]Gal(b1-4)Glc
Outline: as §1

[4] = target: Fuc(a1-2)Gal(b1-3)GalNAc(a1-3)[Fuc(a1-2)]Gal(b1-4)GlcNAc
Outline: as §1

[5] = target: Fuc(a1-2)Gal(b1-3)GalNAc(b1-3)Gal
Outline: as §1

[6] = target: Fuc(a1-2)Gal(b1-3)GalNAc(b1-3)Gal(a1-4)Gal(b1-4)Glc
Outline: as §1

[7] = target: Fuc(a1-2)Gal(b1-3)GalNAc(b1-4)[Neu5Ac(a2-3)]Gal(b1-4)Glc
Outline: as §1

[8] = target: Fuc(a1-2)Gal(b1-3)GlcNAc
Outline: as §1

[9] = target: Fuc(a1-2)Gal(b1-3)GlcNAc(b1-2)Man(a1-3)[Fuc(a1-2)Gal(b1-3)GlcNAc(b1-2)Man(a1-6)]Man(b1-4)GlcNAc(b1-4)GlcNAc
Outline: as §1

[10] = target: Fuc(a1-2)Gal(b1-3)GlcNAc(b1-2)Man(a1-3)[Fuc(a1-2)Gal(b1-3)GlcNAc(b1-2)Man(a1-6)]Man(b1-4)GlcNAc(b1-4)[Fuc(a1-6)]GlcNAc
Outline: as §1

[11] = target: Fuc(a1-2)Gal(b1-3)GlcNAc(b1-3)Gal(b1-4)Glc
Outline: as §1

[12] = target: Fuc(a1-2)Gal(b1-3)GlcNAc(b1-3)GalNAc
Outline: as §1

[13] = target: Fuc(a1-2)Gal(b1-3)GlcNAc(b1-3)[Fuc(a1-2)Gal(b1-3)GlcNAc(b1-6)]GalNAc
Outline: as §1

[14] = target: Fuc(a1-2)Gal(b1-3)GlcNAc(b1-3)[Gal(b1-4)GlcNAc(b1-6)]Gal(b1-4)Glc
Outline: as §1

[15] = target: Fuc(a1-2)Gal(b1-3)GlcNAc(b1-3)[Neu5Ac(a2-6)Gal(b1-4)GlcNAc(b1-6)]Gal(b1-4)Glc
Outline: as §1

[16] = target: Fuc(a1-2)Gal(b1-3)GlcNAc6S
Outline: as §1

[17] = target: Fuc(a1-2)Gal(b1-3)[Fuc(a1-4)]GlcNAc
Outline: as §1

[18] = target: Fuc(a1-2)Gal(b1-3)[Fuc(a1-4)]GlcNAc(b1-2)Man(a1-3)[Fuc(a1-2)Gal(b1-3)[Fuc(a1-4)]GlcNAc(b1-2)Man(a1-3)]Man(b1-4)GlcNAc(b1-4)GlcNAc
Outline: as §1

[19] = target: Fuc(a1-2)Gal(b1-3)[Fuc(a1-4)]GlcNAc(b1-2)Man(a1-3)[Fuc(a1-2)Gal(b1-3)[Fuc(a1-4)]GlcNAc(b1-2)Man(a1-6)]Man(b1-4)GlcNAc(b1-4)[Fuc(a1-6)]GlcNAc(b1-4)[Fuc(a1-6)]GlcNAc
Outline: as §1

[20] = target: Fuc(a1-2)Gal(b1-3)[Fuc(a1-4)]GlcNAc(b1-3)[Fuc(a1-3)[Gal(b1-4)]GlcNAc(b1-6)]Gal(b1-4)Glc
Outline: as §1

[21] = target: Fuc(a1-2)Gal(b1-3)[Fuc(a1-4)]GlcNAc(b1-3)[Gal(b1-4)GlcNAc(b1-6)]Gal(b1-4)Glc
Outline: as §1

[22] = target: Fuc(a1-2)Gal(b1-4)Fuc(a1-3)]GlcNAc(b1-2)Man(a1-3)[Fuc(a1-2)Gal(b1-4)[Fuc(a1-3)]GlcNAc(b1-2)Man(a1-6)]Man(b1-4)GlcNAc(b1-4)GlcNAc
Outline: as §1

[23] = target: Fuc(a1-2)Gal(b1-4)Glc
Outline: as §1

[24] = target: Fuc(a1-2)Gal(b1-4)Glc6S
Outline: as §1

[25] = target: Fuc(a1-2)Gal(b1-4)GlcNAc
Outline: as §1

[26] = target: Fuc(a1-2)Gal(b1-4)GlcNAc(b1-2)Man
Outline: as §1

[27] = target: Fuc(a1-2)Gal(b1-4)GlcNAc(b1-2)Man(a1-3)[Fuc(a1-2)Gal(b1-4)GlcNAc(b1-2)Man(a1-6)]Man(b1-4)GlcNAc(b1-4)GlcNAc
Outline: as §1

[28] = target: Fuc(a1-2)Gal(b1-4)GlcNAc(b1-2)Man(a1-3)[Fuc(a1-2)Gal(b1-4)GlcNAc(b1-2)Man(a1-6)]Man(b1-4)GlcNAc(b1-4)[Fuc(a1-6)]GlcNAc
Outline: as §1

[29] = target: Fuc(a1-2)Gal(b1-4)GlcNAc(b1-2)[Fuc(a1-2)Gal(b1-4)GlcNAc(b1-4)]Man(a1-3)[Fuc(a1-2)Gal(b1-4)GlcNAc(b1-2)Man(a1-6)]Man(b1-4)GlcNAc(b1-4)GlcNAc
Outline: as §1

[30] = target: Fuc(a1-2)Gal(b1-4)GlcNAc(b1-3)Gal(b1-4)GlcNAc
Outline: as §1

B1: HopZSSI-T (Helicobacter pylori), B5Z6D0 (protein)
chain: MGSSHHHHHHSSGLVPRGSHMENLYFQGEDNGFFISAGYQIGEAAQMVKNTGELKKLSDTYENLSNLLTNFNNLNQAVTNASSPSEINAAIDNLKANTQGLTGEKTNSPAYQAVYLALNAAVGLWNVIAYNVQCGPGNSSQQSVTFEGQPGHNSSSINCNLTGYNNGVSGPLSIDNFKQLNQAYQVLQQALKQGVPVLNNTNQKIEVKVTTQTNGQSSKETTTTTTTNDAQTLLQEASKMIDVLTTNCPWVNHNPGQNGGAPWGLIRQECVSGFATEFSAVTSMIKNAQEIVTQAQSLNANQNNQNAPQDFNPYTSADRAFAQNMLNHAQAQAKILELADQMKKDLNTIPSQFITNYLAACRIDGTTPSQGVTNNTWGAGCAYVEETITALNNSLAHFGTQAEQIKQSELLARTILDFRGSLSTLNSTYNSITTTASNTPNSPFLKNLISQSTNPNNPGGLQAVYQVNQSAYSQLLSATQELGHNPFRRIGLISSQT
glycan array binding signal (z-score) [1]: -0.396
glycan array binding signal (z-score) [2]: -0.094
glycan array binding signal (z-score) [3]: 0.527
glycan array binding signal (z-score) [4]: -0.483
glycan array binding signal (z-score) [5]: -0.811
glycan array binding signal (z-score) [6]: -0.42
glycan array binding signal (z-score) [7]: -0.586
glycan array binding signal (z-score) [8]: -0.332
glycan array binding signal (z-score) [9]: 0.172
glycan array binding signal (z-score) [10]: -0.513
glycan array binding signal (z-score) [11]: -0.384
glycan array binding signal (z-score) [12]: -0.241
glycan array binding signal (z-score) [13]: 0.21
glycan array binding signal (z-score) [14]: -0.753
glycan array binding signal (z-score) [15]: -0.354
glycan array binding signal (z-score) [16]: 0.267
glycan array binding signal (z-score) [17]: -0.383
glycan array binding signal (z-score) [18]: -0.261
glycan array binding signal (z-score) [19]: -0.069
glycan array binding signal (z-score) [20]: -0.186
glycan array binding signal (z-score) [21]: -0.374
glycan array binding signal (z-score) [22]: 0.118
glycan array binding signal (z-score) [23]: -0.021
glycan array binding signal (z-score) [24]: -0.037
glycan array binding signal (z-score) [25]: -0.171
glycan array binding signal (z-score) [26]: 0.313
glycan array binding signal (z-score) [27]: -0.414
glycan array binding signal (z-score) [28]: 0.475
glycan array binding signal (z-score) [29]: 0.381
glycan array binding signal (z-score) [30]: -0.211
